Results: publication PMC8294587, “Intrinsic differences in the mechanisms of Tie2 binding to angiopoietins exploited by directed evolution to create an Ang2-selective ligand trap” (The Journal of Biological Chemistry, 2021)
These are yes or no findings as the source states them, for the method shown. Some results given as binding are weak or reduced against the parent protein; the word gives no strength.

By UniProt entry, the sequences of proteins in these tests, tags left out. Where a name states a change or a piece, a line headed by the entry shows the natural chain unless it says otherwise. Chains listed by the source or under a name are the forms on record and can include a tag or linker.
parent Ang2-selective Tie2 ectodomain (R3) (Q02763, form named): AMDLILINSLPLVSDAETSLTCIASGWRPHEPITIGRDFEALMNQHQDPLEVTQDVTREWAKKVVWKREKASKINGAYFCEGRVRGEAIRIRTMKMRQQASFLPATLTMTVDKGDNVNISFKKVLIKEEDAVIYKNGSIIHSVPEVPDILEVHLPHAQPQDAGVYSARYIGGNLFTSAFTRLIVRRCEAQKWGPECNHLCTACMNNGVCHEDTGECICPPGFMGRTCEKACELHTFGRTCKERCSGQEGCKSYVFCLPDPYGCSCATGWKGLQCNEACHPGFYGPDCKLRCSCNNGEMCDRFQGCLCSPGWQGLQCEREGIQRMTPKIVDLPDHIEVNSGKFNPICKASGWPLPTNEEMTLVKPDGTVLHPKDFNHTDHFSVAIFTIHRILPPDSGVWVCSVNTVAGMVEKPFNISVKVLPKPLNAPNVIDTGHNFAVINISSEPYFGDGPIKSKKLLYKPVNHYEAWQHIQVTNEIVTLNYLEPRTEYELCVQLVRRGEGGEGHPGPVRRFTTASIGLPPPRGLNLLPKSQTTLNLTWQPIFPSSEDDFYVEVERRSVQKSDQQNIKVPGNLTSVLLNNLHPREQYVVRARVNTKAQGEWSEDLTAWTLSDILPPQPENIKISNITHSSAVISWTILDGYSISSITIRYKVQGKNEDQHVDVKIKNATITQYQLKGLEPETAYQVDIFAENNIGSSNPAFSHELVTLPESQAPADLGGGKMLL

Assays:
[1] = target: T1, Angiopoietin-2 (UniProt O15123 19-496); test: ELISA; recombinant Ang1 or Ang2 immobilised on Maxisorp plates, blocked with TBS, 0.1% Triton-X100, 5% milk powder; Tie2 ectodomain proteins bound for 1 h; detected with anti-Tie2 ectodomain antibodies; EC50 = concentration of ectodomain for 50% of maximal binding; both purified
T1 construct: recombinant Ang2; the residue numbers printed for Ang2 (Asp448, Phe469, Ser480) come from the cited structure 2GY7; also called Ang2; source: recombinant
T1 sequence (looked up): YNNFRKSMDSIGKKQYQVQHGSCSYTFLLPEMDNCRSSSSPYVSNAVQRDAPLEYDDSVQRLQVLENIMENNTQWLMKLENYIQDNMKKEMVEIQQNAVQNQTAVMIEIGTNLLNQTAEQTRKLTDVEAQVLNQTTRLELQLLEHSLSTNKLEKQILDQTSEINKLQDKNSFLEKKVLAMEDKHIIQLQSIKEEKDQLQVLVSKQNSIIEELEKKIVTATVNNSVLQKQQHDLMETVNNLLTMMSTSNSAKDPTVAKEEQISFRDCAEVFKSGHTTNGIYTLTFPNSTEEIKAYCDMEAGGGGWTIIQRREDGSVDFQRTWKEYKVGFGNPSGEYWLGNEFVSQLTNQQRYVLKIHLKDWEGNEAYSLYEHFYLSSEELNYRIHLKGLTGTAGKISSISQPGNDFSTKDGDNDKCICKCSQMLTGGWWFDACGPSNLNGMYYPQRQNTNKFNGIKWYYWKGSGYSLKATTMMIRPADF

[2] = target: evolved Tie2 ectodomain displayed on DT40 cells selected at 10 pM Ang2 (UniProt Q02763); test: flow cytometry on cells; DT40 cells displaying evolved Tie2 ectodomain incubated with increasing concentrations of Ang1 or Ang2 in PBS with 10% FBS, 30 min, room temperature; bound ligand immunostained, normalised to Tie2 expression (anti-FLAG); only the binder purified

binding [1] | binding [2] | Substance
binds |  | parent Ang2-selective Tie2 ectodomain (R3) (from UniProt Q02763 23-748) (domain or fragment)
 | binds | Angiopoietin-2 (from UniProt O15123 19-496) (ligand)
